# Experimental data as given in PubChem BioAssay AID1347423 (Functional Genomics Laboratory (NCATS/FGL), 2020).
# The campaign covered roughly 52,000 sequences. About 210 (0.4%) were called active.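 How the source made its calls: active means gene whose silencing raises cell survival under the drug, median off-target-corrected z-score across its silencing RNAs 2 or more; inactive means the rest.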 Some of the results follow.
# Experiment: Resistance to Poly (ADP-Ribose) Polymerase inhibitor: Gene Identification via Genome-wide siRNA Screen
# Settings: mouse BRCA2 R2336H ES cells, olaparib, CellTiter-Glo viability; hits give high values
# In short: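 Mouse BRCA2 R2336H ES cells were reverse-transfected with siRNA (20 nM final), treated at 48 h with 500 nM olaparib, and read by CellTiter-Glo after 72 h. Scores: MAD-based z per siRNA, median per gene, seed off-target correction.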
row,Sequence,z-score
1,CCGCUGCAUAGCAUGUACATT against Dusp23,inactive: -0.268
2,GGAGAUUCACCCUGAGUGUTT against Gtf3c1,inactive: -0.358
3,GGAAGUUCCACGUUAUUGUTT against Eif2b2,inactive: 0.818
4,GGCUUACGUGGUGUGCACUTT against Galr1,inactive: -0.319
5,GCUGGUCAAGUCCUUCUAGTT against Mrpl28,inactive: 0.54
6,GCACUUAUGAUGUCCUAUUTT against Sema4b,inactive: -0.68
7,GAUCAACCUGAGCUCCAGUTT against Olfr25,inactive: -0.622
8,GGCUUCAGACCCUCAAAAGTT against C230086A09Rik,inactive: 0.672
9,GCACAACAUGGAUUGGAAATT against Dhps,inactive: -0.544
10,GGAAAAUGAAAUCAUCGAGTT against Fuca1,inactive: 0.465
11,GGAACCUUCACGAUAACAGTT against 2810407A14Rik,inactive: -0.409
12,GGACAAUUACAUCCAGCCUTT against 2610528J11Rik,inactive: 0.381
13,GGAAAUUAUCAAAGUGACATT against Camk2a,inactive: -1.54
14,CCUGGAGAAUUCGAAAAAATT against Grm8,inactive: 0.0644
15,GGGACAUUUUCUUUCUAUUTT against Diap3,inactive: 1.13
16,GGUUCUUGUUUGUUGUGGUTT against Olfr94,inactive: 0.135
17,GCAGUGUUUACUUAUCACGTT against Il10ra,inactive: -0.108
18,GGCUACAUUGUCUCAUUGUTT against Opn1mw,inactive: -0.823
19,GCACAAUCUUGUCAAAUUGTT against Birc2,inactive: 0.221
20,GGAAGACCAUGUUUUAAAATT against 1810018L02Rik,inactive: 1.33
21,CCUGGUGUAGAAGUAUAUUTT against Lcat,inactive: 0.236
22,GGAAAUCUCUGGGAUAAUUTT against Hsd11b1,inactive: 0.694
23,GGAGACAAGCUAAUUGAGATT against Ppp1r8,inactive: 2.72
24,GGAUAUAACCAUCCUCUGUTT against AW125441,inactive: -2.52
25,GCUGCUGGAUGCAACCAAATT against Slc16a3,inactive: -3.2
26,CGUCGUAGCAAACCACCAATT against Tnf,inactive: -1.84
27,GGUAAAAACCAGACAGAUGTT against Olfr835,inactive: 0.615
28,GGAUGUAAAACUCUUCUACTT against Depdc6,inactive: -0.0393
29,GACAUAUUUGGGUUUCUAATT against V1rc6,inactive: 0.2

# 2 entries drawn at random from the list so far:
row,Sequence,z-score
15,GGGACAUUUUCUUUCUAUUTT against Diap3,inactive: 1.13
18,GGCUACAUUGUCUCAUUGUTT against Opn1mw,inactive: -0.823
